Measured values from patent US20250304575A1, “COMPOUNDS AND PHARMACEUTICAL COMPOSITIONS THEREOF FOR THE TREATMENT OF NEURODEGENERATIVE DISORDERS” (Galapagos NV, priority 2022, published 2025).

System: Aβ1-42-injected mice (short-term spatial memory)
Assay: Alzheimer's disease mouse model using intrahippocampal injection of oligomers of amyloid beta; forced alternation Y-maze test
Format: in vivo, C57BL6 mice
Settings: Aβ1-42 (2 μL/side, 100 μM) injected mice, n = 12; daily treatment; Compounds 5 mg/kg p.o., Donepezil 1 mg/kg i.p.; group mean; Aβ1-42 + vehicle group 78.9, sham 115.5

COc1cc2c(cc1OC)C(=O)C(CC1CCN(Cc3ccccc3)CC1)C2 (stereo not shown) [Donepezil, reference compound]
Cumulative duration (sec) in the new arm of the Y-maze: 134.6 s
